Laboratory results: publication PMC8602864, “The Molecular Assembly State of Drp1 Controls its Association With the Mitochondrial Recruitment Receptors Mff and MIEF1/2” (Frontiers in Cell and Developmental Biology, 2021)

Target: T1, MIEF2-V5 (UniProt Q96C03)
T1 sequence: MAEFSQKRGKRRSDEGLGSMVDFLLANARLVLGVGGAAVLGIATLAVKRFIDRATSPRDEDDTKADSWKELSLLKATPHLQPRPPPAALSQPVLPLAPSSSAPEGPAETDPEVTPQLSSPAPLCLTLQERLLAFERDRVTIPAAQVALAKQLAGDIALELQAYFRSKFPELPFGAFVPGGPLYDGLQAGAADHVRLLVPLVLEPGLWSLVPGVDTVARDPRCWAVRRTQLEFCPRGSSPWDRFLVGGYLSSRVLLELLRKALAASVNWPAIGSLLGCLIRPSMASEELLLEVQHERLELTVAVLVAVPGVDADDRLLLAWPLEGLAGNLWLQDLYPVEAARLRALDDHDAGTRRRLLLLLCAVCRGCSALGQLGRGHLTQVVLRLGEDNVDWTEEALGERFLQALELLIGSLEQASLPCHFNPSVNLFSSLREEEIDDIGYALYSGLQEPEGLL
Assay: co-IP; Drp1-/- 293T cells co-transfected with Drp1-WT or a Drp1 mutant and MIEF1-V5, MIEF2-V5 or Myc-Mff; in vivo cross-linking with 1% formaldehyde for 10 min; lysis in 1% NP-40; anti-V5 or anti-Myc agarose beads 2 h at room temperature; Western blot

binding: binds
Substance: Drp1-K38A (human)

These are yes or no findings as the source states them, for the method shown. In cells and extracts the contact can be indirect. A result given as binding can be weak or reduced; the word gives no strength. Sequences can lack the tags named with a protein.
